Molecules are shown by their SMILES. The list shows a part of the results. The main result of the screen is listed elsewhere. These columns were measured beside it and carry no call. Most of these compounds were active or inconclusive in the main read-out, so they are no random draw. Words in brackets tell the shape of the fitted curve; partial curves, single points and poor fits give uncertain potencies.

This test can be described thus: IkB Signaling. The settings on record: ABC-DLBCL IkBa-CBG/CBR dual luciferase ratio (green luciferase fused to IkBa over red control in OCI-Ly3 lymphoma cells), 4 h; measured here: control luc red channel unless noted. The method, boiled down: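 Curves were fitted separately to fusion (green), unfused (red) and ratio luminescence, then classed by r2, magnitude and activity. Cells: OCI-Ly3, 4 h compound plus doxycycline at 37C; 10 uM MG-132 defined full response.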
For orientation: AC50 means the midpoint of the concentration-response curve, whichever way the signal moves. `COc1ccccc1-c1cc2nc(C)c(CCC(=O)NCCc3ccc(SC)cc3)c(C)n2n1`: the AC50 is 0.398 µM [falling, full curve].

Take `Cc1ccc(C)c(CNC(=O)c2ccc3c(c2)nc2n3CCC(C)C2)c1` (stereo not given): the AC50 is 39.8 µM [falling, partial curve, poor fit].

For the compound `COc1cccc(Nc2ncc3nc(-c4cccs4)c(=O)n(C[C@H]4CCCO4)c3n2)c1`, the AC50 was 2 µM [falling, partial curve] [measured here: IkB-luc green channel].

Consider `CCn1c(COc2cccc(C)c2)nnc1SCC(=O)Nc1cccc(C(=O)OC)c1`, for which the AC50 is 15.8 µM [falling, partial curve].

Turning to `O=C(OCc1cc(=O)n2nc(-c3cccs3)sc2n1)c1ccccc1`, the AC50 is 39.8 µM [falling, single point].

As for `O=C1c2oc3ccccc3c(=O)c2C(c2ccc(O)cc2)N1Cc1ccc2c(c1)OCO2` (stereo not given), the AC50 is 0.126 µM [rising, full curve].

On to `O=C(c1ccc(Cl)cc1)N1CCC(c2nc3ccccc3o2)CC1`, for which the AC50 is 20 µM [falling, single point].

On to `CCOc1ccc(NC(=O)c2c(NCc3ccc(C)o3)sc3c2CCCCC3)cc1`, for which the AC50 was 25.1 µM [falling, partial curve].

Turning to `Cc1ccc(CSC2=Nc3ccccc3C3=NC(CC(=O)NCc4cccs4)C(=O)N23)c(C)c1` (stereo not given), the AC50 is 25.1 µM [falling, partial curve].

For the compound `COCCn1c(C)cc(C(=O)COC(=O)c2c(C)nn(Cc3ccccc3)c2C)c1C`, the AC50 is 31.6 µM [falling, partial curve].

Consider `O=C(Nc1ccc2nc(SCCOc3ccccc3)sc2c1)c1ccccc1F`, for which the AC50 was 0.631 µM [falling, full curve].

In the case of `Cc1ccc(-c2ccc(=O)n(CC(=O)NCCc3ccc(Cl)cc3)n2)cc1`, the AC50 is 15.8 µM [falling, partial curve].

Regarding `COc1ccc(NC(=O)c2c(NCc3cccs3)sc3c2CCCC3)c(OC)c1`, the AC50 is 0.00794 µM [falling, full curve].

With `COc1ccc(NC(=O)c2oc3ccccc3c2NC(=O)Cc2coc3cc(C)ccc23)cc1`, the AC50 was 3.98 µM [falling, partial curve].

As to `N#CC1=C(SCC(=O)NC23CC4CC(CC(C4)C2)C3)NC(=O)C(C#N)C12CCCCC2` (stereo not given), the AC50 was 15.8 µM [falling, partial curve].

Consider `COc1ccc(C)cc1NC(=O)CCNC(=O)Cn1ccc2ccccc2c1=O`, for which the AC50 was 7.94 µM [falling, full curve, poor fit].

As for `CN1C(=O)Cc2cc(S(=O)(=O)CCC(=O)Nc3ccc(Cl)c(C(F)(F)F)c3)ccc21`, the AC50 is 39.8 µM [falling, partial curve].

Regarding `COc1ccc(C2=C(C)C(=NCCCN3CCN(c4cc(Cl)ccc4C)CC3)NS2(=O)=O)cc1`, the AC50 was 10 µM [falling, partial curve].

For `COc1ccc(-n2ncc(C(=O)Nc3ccc4c(c3)OCO4)c2C2CCN(C(=O)OC(C)(C)C)CC2)cc1`, the AC50 was 25.1 µM [falling, partial curve].

With `COc1ccc2oc(-c3ccc(C)c(NC(=O)c4ccc5c(c4)OCCO5)c3)nc2c1`, the AC50 was 3.16 µM [falling, full curve].

For the compound `CN1/C(=C\C(=O)c2cccs2)Sc2ccccc21`, the AC50 was 15.8 µM [falling, single point].

Consider `Cn1c(-c2ccccc2)cnc1NCc1ccccc1O`, for which the AC50 is 31.6 µM [falling, single point].

For `O=C(NCc1ccccc1Br)c1ccc2c(c1)nc1n2CCOC1`, the AC50 was 5.01 µM [rising, full curve, poor fit].

With `CCCNC(=O)COCc1cc(-c2ccc(F)cc2)on1`, the AC50 is 12.6 µM [falling, partial curve, poor fit].

For the compound `O=C(NCc1ccco1)c1cccn2c(=O)c3sccc3nc12`, the AC50 is 15.8 µM [falling, partial curve].

On to `Cc1cc(NC(=O)CCS(=O)(=O)c2nc(-c3ccccc3)cc(C(F)(F)F)n2)no1`, for which the AC50 is 3.98 µM [falling, full curve].

For `O=C(Nc1cccc2ncccc12)c1cc2ccccc2o1`, the concentration at half-maximal activity (AC50) is 31.6 µM [falling, partial curve].

Turning to `c1ccc(Nc2nc(-c3ccncc3)cs2)nc1`, the AC50 was 10 µM [falling, partial curve].

For `CCOC(=O)C1CCCN(c2c(C(=O)c3ccc(OCC)cc3)cnc3ccccc23)C1` (stereo not given), the AC50 was 15.8 µM [falling, partial curve].

As to `O=S(=O)(c1cccc2nsnc12)N1CCN(c2ncccn2)CC1`, the AC50 was 3.16 µM [rising, full curve, poor fit].

As for `COc1ccc(NC(=O)c2cc3c(=O)n(Cc4cccs4)ccc3nc2C)cc1`, the AC50 was 20 µM [falling, partial curve].

As to `Cc1ccc(NC(=O)c2c(NC(=O)c3ccc(F)cc3)sc3c2CCCC3)cc1C`, the AC50 was 0.501 µM [falling, full curve].

On to `CCNc1nc(C)c2cc(Br)c(=O)n(CC)c2n1`, for which the AC50 was 2.51 µM [rising, full curve].

`CCOC(=O)c1c(C)oc2nc(C)nc(N3CCN(c4cc(Cl)ccc4C)CC3)c12`: the AC50 was 5.01 µM [falling, partial curve].

Take `CCOC(=O)c1cc(OC(=O)c2cc(OC)c(OC)c(OC)c2)n(-c2ccccc2)n1`: the AC50 was 39.8 µM [falling, single point].

As for `O=C(Cn1nc(-c2ccccc2)c2c(c1=O)CCCC2)Nc1ccc(F)c(Cl)c1`, the AC50 is 7.94 µM [falling, partial curve].

`Cc1ccccc1NS(=O)(=O)c1ccc2[nH]cc(C(=O)NC3CCCCC3)c(=O)c2c1`: the AC50 was 20 µM [falling, single point].

For `CCn1c(=O)c2cc(C(=O)NC3CCC(C)CC3)sc2c2ccccc21` (stereo not given), the AC50 is 3.98 µM [falling, partial curve].

For `COc1ccccc1C(=O)Nc1ccc(C(=O)O)cc1`, the AC50 is 1.58 µM [falling, full curve].

As to `Cc1cc(=O)[nH]c(SCC(=O)N2CCN(C(c3ccccc3)c3ccccc3)CC2)n1`, the AC50 was 39.8 µM [falling, partial curve].

(Values after PubChem BioAssay AID445 (National Center for Advancing Translational Sciences (NCATS), 2006).)
